For assay [1], the system named is isolation induced aggressive behaviour (male NMRI mice). As to conditions: background statement; result in words; cited from earlier work.
The test system is the same in assay [2]. The experiment in a line: Isolation induced aggressive behaviour test. Type of assay: in vivo, mouse (male NMRI mice). As to conditions: Mus musculus, sc, 0.5 h, read-out: ED50 (dose inhibiting aggressive behaviour among 50 percent of the pairs). From the text:
This type of aggression is interesting because it is known that this kind of emotional behaviour might be located in limbic structures in the brain (MacLean, P. D., Psychosom. Med. 11, 338 (1949)).
Every week male NMRI mice, weighing 20-22 g, were isolated in Makrolon cages for three weeks with diet and water ad libitum. A piece of cardboard was placed between the cages to prevent visual contact.
To test aggressiveness the mice were paired in a neutral area, a beaker (14 cm high and diameter 14 cm). A pair is considered aggressive if both the animals show clear signs of fighting within 5 minutes. This fighting is characterized by biting and vocalization. A soon as fighting is seen, the mice are separated and brought to their home cage (every second mouse is marked). […] Animals showing no aggression are discarded.
The test substance is administered s.c. (0.2-0.4 ml/20 g). The mice are paired 0.5 hour after the injection for trials of 5 minutes' duration.
The ED50 -value (mg/kg) reported is the dose inhibiting aggressive behaviour among 50 percent of the pairs 0.5 hour after drug administration.

Here are results for one compound from US4778789A, “Piperazinecarboxamides having a phenoxyalkyl or thiophenoxyalkyl side chain” (priority 1985, dated 1988).

A word on the ED50: it is the dose at which the effect has come halfway, by size or by number of responders.

Turning to `CN1C(=O)CN=C(c2ccccc2)c2cc(Cl)ccc21` [Diazepam], the “inhibition of isolation induced aggressive behaviour, clinically used drugs” value in assay [1] was “active”. The ED50 in assay [2] was 6.7 mg/kg.
